This is an account of results in PubChem BioAssay AID1487 (National Center for Advancing Translational Sciences (NCATS), 2009).

Several values for one entry are separate records, joined by “and”; a condition that tells them apart may be missing. Equal entries are not always repeated. Some of the results follow. Shown are side measurements of this screen, not its main read-out; they come without a call. Most of these compounds were active or inconclusive in the main read-out, so they are no random draw. Potencies come from curve fits of mixed quality, noted in brackets.

The nature of this assay: qHTS Assay for Modulators of Lamin A Splicing. The conditions noted are these: HeLa LMNA splicing GFP/RFP minigene ratio, 48 h. The gist of the method: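 Read-out is the ratio of GFP to DsRed2 object intensity, acquired by 488 nm laser-scanning cytometry on HeLa lamin A-EGFP minigene reporter cells. Compound incubation 48 hrs at 37 °C in Opti-MEM with 2% FBS; DMSO 0.5% final.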

Where [1] appears, read: measured here: GFP splicing reporter channel.
The mark [2] stands for this setting: measured here: RFP viability control channel.

One may read the AC50 as the concentration giving half of the maximal activity seen. With `CNCC[C@@H](Oc1ccc(C(F)(F)F)cc1)c1ccccc1`, the AC50 under setting [1] was 15.8 µM [falling, partial curve] and the half-maximal activity concentration (AC50) under setting [2] is 25.1 µM [falling, partial curve, poor fit].

Regarding `c1cc2c(cc1CCNC1C3CC4CC(C3)CC1C4)OCO2` (configuration not stated), the AC50 under setting [2] was 35.5 µM [rising, single point].

Take `Cc1ccc(-c2nc3ccc(C)cn3c2CC(=O)N(C)C)cc1`: the AC50 is 5.62 µM [rising, single point] under setting [1] and 5.62 µM [rising, single point] under setting [2].

In the case of `Cn1cc(C(=O)N2CCC3(CC2)OCCO3)c2c3ccccc3n(C)c2c1=O`, under setting [1], the concentration at half-maximal activity (AC50) is 1.26 µM [rising, partial curve, poor fit].

For the molecule `COc1ccc(C(=O)Nc2ccccc2C(=O)NC(C(=O)NCc2ccco2)C(C)C)cc1` (configuration not stated), the AC50 under setting [2] is 5.62 µM [rising, single point].

With `C[C@H]1CCC/C=C/C2C[C@H](O)CC2[C@H](O)/C=C/C(=O)O1` (some centres not stated), under setting [2], the AC50 is 0.224 µM [rising, full curve].

As for `CCc1ccc(-n2c(SC(CC)C(=O)N(CC)CC)nc3n[nH]c(C)c3c2=N)cc1` (configuration not stated), the concentration at half-maximal activity (AC50) under setting [2] is 0.0631 µM [falling, full curve, poor fit].

On to `C[C@H](N)CN1CCc2ccc(Br)cc21`, for which the AC50 reads like this: under setting [1], 25.1 µM [falling, single point]; under setting [2], 3.55 µM [falling, single point].

As for `CCCCCCCSc1cc(OC)c(CCNC)cc1OC`, the AC50 under setting [2] was 0.224 µM [falling, full curve, poor fit].

Consider `Cc1cc(C)[n+](C2C3CC4CC(C3)CC2C4)o1` (configuration not stated), for which the AC50 under setting [1] is 31.6 µM [rising, single point] and the AC50 under setting [2] is 35.5 µM [rising, single point].

`CC(=O)C1=C(O)C2C3c4c[nH]c5cccc(c45)CC3C(C)(C)N2C1=O` (configuration not stated): the AC50 reads like this: under setting [1], 2.82 µM [rising, single point]; under setting [2], 3.55 µM [rising, single point].

On to `CCOC(=O)C1C2c3ccccc3O[C@@]1(C)N=C1SCC(=O)N12` (some centres not stated), for which the concentration at half-maximal activity (AC50) under setting [2] is 0.00501 µM [falling, full curve, poor fit].

In the case of `CN(C)[C@@H]1C(=O)C(C(N)=O)=C(O)[C@]2(O)C(=O)C3=C(O)c4c(O)ccc(Cl)c4[C@](C)(O)[C@H]3C[C@@H]12`, the concentration at half-maximal activity (AC50) under setting [1] was 0.00447 µM [falling, full curve] and the half-maximal activity concentration (AC50) under setting [2] is 0.282 µM [falling, single point].

Consider `c1cc2n(c1)-c1c(ccc3c1OCO3)CNC2c1ccc2c(c1)OCO2` (configuration not stated), for which the AC50 under setting [2] was 14.1 µM [rising, single point].

In the case of `C=C(C)[C@H]1CN[C@H](C(=O)O)[C@H]1CC(=O)O`, the AC50 under setting [1] is 0.355 µM [falling, single point]; the AC50 under setting [2] was 5.01 µM [rising, full curve, poor fit] and 631 nM [falling, full curve, poor fit].

Consider `O=C(O)C1C2CCC(O2)C1C(=O)NC1CCCCC1` (configuration not stated), for which the AC50 runs as follows: under setting [1], 31.6 µM [rising, single point]; under setting [2], 35.5 µM [rising, single point].

As for `CCOCCCNC(=O)c1c[nH]c2ccc(S(=O)(=O)N(C)c3ccc(Cl)cc3F)cc2c1=O`, the AC50 under setting [2] was 0.02 µM [rising, full curve, poor fit].

Consider `COc1ccc(Nc2cc(C)c3cc(NC(=O)c4ccccc4Cl)ccc3n2)cc1`, for which the half-maximal activity concentration (AC50) under setting [2] is 25.1 µM [rising, single point].

As for `CCC(=Nc1cc(OC)ccc1OC)c1c(O)[nH]c(=O)[nH]c1=O`, the AC50 runs as follows: under setting [1], 3.55 µM [rising, partial curve]; under setting [2], 35.5 µM [falling, single point].

`CCNC(=O)[C@H]1O[C@@H](n2cnc3c(N)ncnc32)[C@H](O)[C@H]1O`: the AC50 under setting [1] was 0.2 µM [falling, full curve, poor fit].

On to `CC1(C)CC(=O)C(C=NCCN2CCN(C(=O)Cc3ccc(Cl)cc3)CC2)=C(O)C1`, for which the AC50 under setting [2] is 1.58 µM [rising, partial curve].

In the case of `O=C(NC1CCCCC1)C1CCN(C(=O)c2ccc(-c3ccccc3)cc2)CC1`, the half-maximal activity concentration (AC50) runs as follows: under setting [1], 1.78 µM [falling, partial curve, poor fit]; under setting [2], 4.47 µM [falling, partial curve, poor fit].

`CCCCn1c(O)c(C(CC)=NCCc2ccccc2)c(=O)[nH]c1=O`: the AC50 is 15.8 µM [rising, partial curve] under setting [1] and 20 µM [rising, partial curve] under setting [2].

On to `CC(C)N(C(=O)CCl)c1ccccc1`, for which the AC50 is, setting by setting: under setting [1], 20 µM [falling, partial curve]; under setting [2], 25.1 µM [falling, single point].

Consider `NC(CCCP(=O)(O)O)C(=O)O` (configuration not stated), for which the AC50 reads like this: under setting [1], 0.0501 µM [falling, full curve, poor fit]; under setting [2], 0.000794 µM [falling, full curve, poor fit].

With `Cc1cccc(NP(=O)(Oc2ccccc2F)Oc2ccccc2F)c1`, the AC50 under setting [2] was 15.8 µM [rising, single point].

In the case of `CN1Cc2c(ccc3c2OCO3)[C@@H]2[C@@H](O)Cc3cc4c(cc3[C@@H]21)OCO4`, the AC50 is, setting by setting: under setting [1], 0.562 µM [falling, full curve]; under setting [2], 0.891 µM [falling, full curve].

As to `O=C(Nc1ccc2c(c1)OCCO2)c1cccn(Cc2cccc(F)c2)c1=O`, the half-maximal activity concentration (AC50) under setting [1] is 10 µM [falling, partial curve].

Turning to `Cc1nonc1OCCNc1ccc([N+](=O)[O-])c2cccnc12`, the AC50 under setting [1] is 17.8 µM [rising, single point] and the AC50 under setting [2] was 35.5 µM [rising, single point].

In the case of `O=c1[nH]c(=O)n(Cc2ccc(F)cc2)c(O)c1C=Nc1ccc(Cl)cc1`, the AC50 under setting [2] is 35.5 µM [falling, single point].

Take `O=[N+]([O-])c1ccc(Sc2nc3ccccc3o2)c([N+](=O)[O-])c1`: the half-maximal activity concentration (AC50) runs as follows: under setting [1], 35.5 µM [falling, single point]; under setting [2], 35.5 µM [falling, single point].

On to `CCc1ccccc1NC(=O)c1cccn(Cc2ccccc2F)c1=O`, for which the AC50 runs as follows: under setting [1], 0.282 µM [falling, full curve, poor fit]; under setting [2], 0.158 µM [falling, full curve, poor fit].

As to `CCC1(c2ccccc2)C(=O)NC(=O)N(C)C1=O` (configuration not stated), the concentration at half-maximal activity (AC50) runs as follows: under setting [1], 0.00398 µM [falling, full curve, poor fit]; under setting [2], 0.447 µM [falling, single point].

With `CCCCCn1c(N)c(C(=O)NCc2cccs2)c2nc3ccccc3nc21`, the half-maximal activity concentration (AC50) is, setting by setting: under setting [1], 28.2 µM [falling, single point]; under setting [2], 35.5 µM [falling, single point].

As to `Nc1c(C(=O)NCCc2ccccc2)c2nc3ccccc3nc2n1CCN1CCOCC1`, the concentration at half-maximal activity (AC50) is, setting by setting: under setting [1], 25.1 µM [falling, single point]; under setting [2], 14.1 µM [falling, partial curve].

`CCOC(=O)c1cc(CC)sc1/N=C/C1C(=O)NC(=S)NC1=O`: the AC50 was 0.0126 µM [rising, full curve, poor fit] under setting [1] and 0.794 µM [rising, partial curve] under setting [2].

With `COc1ccc(C(=O)Nc2sc3c(c2C(=O)O)CC(C)(C)OC3)cc1`, the half-maximal activity concentration (AC50) under setting [2] was 3.55 µM [rising, partial curve, poor fit].

As for `CCCCn1c(O)c(/C(CC)=N/N2CCCCC2c2cccnc2)c(=O)[nH]c1=S` (configuration not stated), under setting [2], the AC50 was 11.2 µM [rising, partial curve, poor fit].

Regarding `O=C1c2cccc3cccc(c23)C(=O)N1/N=C/c1c(O)n(-c2ccccc2)c(=O)[nH]c1=O`, the AC50 under setting [2] was 0.00447 µM [falling, full curve, poor fit].

As to `CN1[C@@H]2CC(OC(=O)[C@@H](CO)c3ccccc3)C[C@@H]1[C@H]1O[C@H]12` (some centres not stated), the concentration at half-maximal activity (AC50) under setting [2] is 0.126 µM [rising, full curve, poor fit].

Consider `CCOC(=O)C(O)(c1ccc(NC(=S)NC(=O)c2ccc(Cl)cc2Cl)cc1)C(F)(F)F` (configuration not stated), for which the concentration at half-maximal activity (AC50) runs as follows: under setting [1], 35.5 µM [falling, single point]; under setting [2], 3.55 µM [rising, single point].

As for `O=[N+]([O-])c1ccc2nc(N3CCNCC3)ccc2c1`, the concentration at half-maximal activity (AC50) is, setting by setting: under setting [1], 14.1 µM [falling, partial curve]; under setting [2], 5.62 µM [falling, partial curve].

On to `C=CCN1C(=O)NC(=O)/C(=C/c2ccoc2)C1=O`, for which the half-maximal activity concentration (AC50) was 10 µM [falling, partial curve] under setting [1] and 3.16 µM [falling, partial curve, poor fit] under setting [2].

Turning to `Cc1cc(S(=O)(=O)NCC(C)C)ccc1OCC(=O)N1CCN(Cc2ccccc2)CC1`, the half-maximal activity concentration (AC50) under setting [2] was 11.2 µM [rising, partial curve].

For the molecule `O=C1OC(=O)C2C3CCC(O3)C12` (configuration not stated), the concentration at half-maximal activity (AC50) is, setting by setting: under setting [1], 31.6 µM [falling, single point] and 35.5 µM [falling, single point]; under setting [2], 31.6 µM [falling, single point] and 1.58 µM [falling, partial curve, poor fit].

Take `Cc1nn(Cc2ccccc2)c(Cl)c1C(=O)OC(C)C(=O)Nc1ccc(F)cc1Cl` (configuration not stated): the AC50 under setting [2] was 20 µM [falling, partial curve, poor fit].

With `CC(=O)[C@@]1(O)CC[C@H]2[C@@H]3C[C@H](C)C4=CC(=O)CC[C@]4(C)[C@H]3CC[C@@]21C`, the concentration at half-maximal activity (AC50) under setting [1] is 11.2 µM [rising, single point] and the AC50 under setting [2] was 1 µM [falling, full curve, poor fit].

Consider `COC(=O)C1=Nc2ccccc2/C1=C\c1c(O)n(-c2ccc(OC)cc2)c(=O)[nH]c1=O`, for which the AC50 under setting [1] was 22.4 µM [falling, single point] and the AC50 under setting [2] is 17.8 µM [falling, partial curve].

Turning to `Cc1ccsc1C(=O)C1CCCN(Cc2cc3ccccc3o2)C1` (configuration not stated), the AC50 was 25.1 µM [falling, partial curve] under setting [1] and 0.141 µM [falling, full curve, poor fit] under setting [2].
